Measurements reported in PubChem BioAssay AID1259254 (NCATS, 2017).

- Assay: 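Finding genes that stop cells copying their DNA twice in one cycle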 (primary screen)
- Cells: human HCT116 colorectal cancer cells
- Reagent: single siRNA against human genes
- Duration: 3 days
- Measurement: 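Nuclei stained with Hoechst and imaged; cell-cycle phase assigned by DNA content; G2 share scaled per plate, non-targeting siRNA 0%, GMNN siRNA 100%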
- Reading the numbers: G2 robust z-score and G2 cells, % of GMNN control: higher = more G2 cells, more excess DNA replication; raw share of cells in G2: higher = larger share of cells with G2 DNA content
- Rule for the call: 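Active siRNAs have a G2 robust z of 5 or more median absolute deviations over the median, which in these data means about 38% or higher of GMNN control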
Here is one part, drawn at random, of about 59,000 reagents tested. About 1,550 of all reagents (2.6%) count as active. 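G2 share is only a proxy for re-replication; each gene was hit by three separate siRNAs, and active genes were retested.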 The raw values are shown without normalisation. Unmarked entries are inactive. The numbers tell different reagents against one gene apart. Reagent sequences are not shown. Not given: the amount of reagent.

| target | siRNA no. | G2 robust z-score | G2 cells, % of GMNN control | raw share of cells in G2 (%) |
| --- | --- | --- | --- | --- |
| VN2R1P | 1 | 2.62 | 21.4 | 12.3 |
| VN2R1P | 2 | -1.06 | -4.5 | 2.96 |
| VN2R1P | 3 | 2.86 | 23.1 | 11.8 |
| RAB31 | 1 | -0.845 | -2.98 | 4.4 |
| RAB31 | 2 | 5.77 (active) | 43.6 | 23.7 |
| RAB31 | 3 | -0.753 | -2.33 | 3.09 |
| CDKN3 | 1 | -0.926 | -3.55 | 3.64 |
| CDKN3 | 2 | 2.52 | 20.7 | 10.5 |
| CDKN3 | 3 | 0.528 | 6.68 | 5.51 |
| RPS2P45 | 1 | -0.0566 | 2.57 | 5.51 |
| RPS2P45 | 2 | -0.344 | 0.544 | 4.54 |
| RPS2P45 | 3 | -0.303 | 0.835 | 2.61 |
| NUP93 | 1 | 0.77 | 8.38 | 6.06 |
| NUP93 | 2 | 1.86 | 16 | 11.3 |
| NUP93 | 3 | 2.88 | 23.3 | 14.2 |
| ELMOD1 | 1 | -0.39 | 0.223 | 3.21 |
| ELMOD1 | 2 | 2.32 | 19.3 | 11.9 |
| ELMOD1 | 3 | 3.22 | 25.6 | 14.8 |
| ELMOD1 | 4 | 0.685 | 7.78 | 5.62 |
| ELMOD1 | 5 | -0.914 | -3.46 | 2.32 |
| ELMOD1 | 6 | -0.304 | 0.831 | 3.57 |
| APOLD1 | 1 | 0.275 | 4.9 | 5.74 |
| APOLD1 | 2 | 3 | 24.1 | 10.6 |
| APOLD1 | 3 | -0.672 | -1.76 | 1.87 |
| ZNF576 | 1 | -0.547 | -0.882 | 4.2 |
| ZNF576 | 2 | -0.687 | -1.86 | 3.77 |
| ZNF576 | 3 | 0.181 | 4.24 | 3.82 |
| FARP2 | 1 | 0.492 | 6.43 | 7.36 |
| FARP2 | 2 | 1.91 | 16.4 | 11.4 |
| FARP2 | 3 | -0.401 | 0.147 | 3.25 |
| ART5 | 1 | -0.185 | 1.67 | 5.68 |
| ART5 | 2 | -0.964 | -3.82 | 3.9 |
| ART5 | 3 | 3.58 | 28.2 | 15.1 |
| SLC4A1AP | 1 | 0.374 | 5.6 | 5.78 |
| SLC4A1AP | 2 | -0.5 | -0.548 | 3.97 |
| SLC4A1AP | 3 | 2.25 | 18.8 | 13.9 |
| HPS5 | 1 | 1.57 | 14 | 10.5 |
| HPS5 | 2 | -0.466 | -0.311 | 4.01 |
| HPS5 | 3 | 0.591 | 7.13 | 5.84 |

10 entries already listed, ordered by “G2 robust z-score”, high to low.
| target | siRNA no. | G2 robust z-score | G2 cells, % of GMNN control | raw share of cells in G2 (%) |
| --- | --- | --- | --- | --- |
| APOLD1 | 2 | 3 | 24.1 | 10.6 |
| FARP2 | 2 | 1.91 | 16.4 | 11.4 |
| FARP2 | 1 | 0.492 | 6.43 | 7.36 |
| ZNF576 | 3 | 0.181 | 4.24 | 3.82 |
| ART5 | 1 | -0.185 | 1.67 | 5.68 |
| FARP2 | 3 | -0.401 | 0.147 | 3.25 |
| ZNF576 | 1 | -0.547 | -0.882 | 4.2 |
| APOLD1 | 3 | -0.672 | -1.76 | 1.87 |
| ZNF576 | 2 | -0.687 | -1.86 | 3.77 |
| ART5 | 2 | -0.964 | -3.82 | 3.9 |

The list goes on:
| target | siRNA no. | G2 robust z-score | G2 cells, % of GMNN control | raw share of cells in G2 (%) |
| --- | --- | --- | --- | --- |
| ZNF117 | 1 | -0.795 | -2.63 | 1.86 |
| ZNF117 | 2 | 3.58 | 28.1 | 18.6 |
| ZNF117 | 3 | 2.57 | 21 | 10.2 |
| EDN3 | 1 | -0.0495 | 2.62 | 6.19 |
| EDN3 | 2 | 0.0746 | 3.49 | 6.59 |
| EDN3 | 3 | 0.196 | 4.35 | 5.21 |
| ZNF414 | 1 | -0.456 | -0.24 | 3.39 |
| ZNF414 | 2 | -0.818 | -2.79 | 1.56 |
| ZNF414 | 3 | -0.553 | -0.923 | 3.8 |
| ZNF324B | 1 | -0.543 | -0.851 | 2.8 |
| ZNF324B | 2 | 6.95 (active) | 51.8 | 21.2 |
| ZNF324B | 3 | -0.793 | -2.61 | 2.61 |
| SPINK13 | 1 | -0.707 | -2.01 | 3.16 |
| SPINK13 | 2 | -0.446 | -0.17 | 2.86 |
| SPINK13 | 3 | 0.149 | 4.02 | 4.47 |
| ATP6AP1L | 1 | -0.0367 | 2.71 | 3.78 |
| ATP6AP1L | 2 | -0.161 | 1.83 | 4.86 |
| ATP6AP1L | 3 | 1.09 | 10.7 | 6.34 |
| PSMF1 | 1 | -0.422 | 0.000976 | 5.33 |
| PSMF1 | 2 | -0.118 | 2.13 | 4.83 |
| PSMF1 | 3 | 0.452 | 6.15 | 5.64 |
| OPTC | 1 | 5.48 (active) | 41.5 | 18 |
| OPTC | 2 | 2.29 | 19.1 | 10.2 |
| OPTC | 3 | 5.61 (active) | 42.4 | 25.4 |
| FOXE3 | 1 | -0.855 | -3.05 | 2.57 |
| FOXE3 | 2 | 0.575 | 7.02 | 7.78 |
| FOXE3 | 3 | -1.43 | -7.08 | 2.57 |
| POU4F3 | 1 | -0.198 | 1.57 | 4.08 |
| POU4F3 | 2 | -0.745 | -2.28 | 3.78 |
| POU4F3 | 3 | -0.474 | -0.369 | 2.97 |
